This data set in a line: general procedure: peptide synthesis; cyanomethyl ester activation, then amine. The following applies: late stage modification step, free base, acetate, hydrochloride or trifluoroacetate.

As for “N^15 -tert-butyloxycarbonyl (t-Boc) deglucoteicoplanin”, the step yield is 92%.

For the origin of these results see patent US5500410A (Gruppo Lepetit S.p.A., priority 1989, dated 1996).
